Results published in US20230295316A1.
These are yes or no findings as the source states them, for the method shown. Some results given as binding are weak or reduced against the parent protein; the word gives no strength.

By UniProt entry, the sequences of proteins in these tests, tags left out. Residues count along the entry.
UniProt P26951, residues 19-378: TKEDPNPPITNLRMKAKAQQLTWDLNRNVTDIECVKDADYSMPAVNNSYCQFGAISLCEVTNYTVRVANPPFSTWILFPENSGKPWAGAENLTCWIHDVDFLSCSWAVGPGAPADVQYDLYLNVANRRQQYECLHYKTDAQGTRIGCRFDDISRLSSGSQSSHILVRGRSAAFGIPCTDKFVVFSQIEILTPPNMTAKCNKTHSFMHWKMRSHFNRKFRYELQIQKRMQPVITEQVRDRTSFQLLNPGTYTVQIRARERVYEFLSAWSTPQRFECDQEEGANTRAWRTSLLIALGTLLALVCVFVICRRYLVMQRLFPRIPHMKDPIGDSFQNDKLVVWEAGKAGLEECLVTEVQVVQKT

Legend:
[1] = target: human interleukin-3 (IL-3) receptor alpha-chain (CD123), on cells (human) (UniProt P26951); assay: method not given
[2] = target: human interleukin-3 (IL-3) receptor alpha-chain (CD123), on cells (human) (UniProt P26951); assay: flow cytometry (PE-A), 2 µg/mL by the legend (hybridoma supernatants by paragraph 203) + labeled secondary antibody, parental MOLM-13 cells against MOLM-13 CD123KO
[3] = target: human interleukin-3 (IL-3) receptor alpha-chain (CD123), on cells (human) (UniProt P26951); assay: flow cytometry, MOLM-13 vs MOLM-13 CD123KO, labeled secondary

- binding [1]: binds
- binding [2]: binds
- binding [3]: binds
B1: 123-ATX1G5 (Human anti-CD123 antibody from ATX-GX mouse, Kappa Light Chain) (antibody, V domains shown)
VH: QVQLVQSGSEVKKPGSSVKVSCKASGGTFSSYAISWVRQAPGQGLEWMGGIIPIFGTVTYAQKFQGRVTITADESTNTVYMELSSLRSEDTAVYYCARDDFWTGDYWGQGTLVTVSS
VL: DIQMTQSPSSLSASVGDRVTITCRASQGISNYLAWFQQKPGKAPKSLIYAASSLQSGVPSKFSGSGSGTDFTLTISSLQPEDLATYYCQQYNSYPYTFGQGTKLEIK
